According to ChEMBL document CHEMBL4316593 (Eur J Med Chem, 2019):
This continues a long series; more values of the same kind are listed elsewhere.

Columns and labels:
Format in all cases: cell-based
Conditions in all cases: U-87MG ATCC
[1] = Inhibition of RTK/PI3K/AKT/mTOR signaling in human U87 cells assessed as down regulation of BLOC1S2 gene expression at cytotoxic IC50 measured after 48 hrs relative to control
[2] = Inhibition of RTK/PI3K/AKT/mTOR signaling in human U87 cells assessed as down regulation of TSPYL1 gene expression at cytotoxic IC50 measured after 48 hrs relative to control
[3] = Inhibition of RTK/PI3K/AKT/mTOR signaling in human U87 cells assessed as up regulation of TMIE gene expression at cytotoxic IC50 measured after 48 hrs relative to control
[4] = Inhibition of RTK/PI3K/AKT/mTOR signaling in human U87 cells assessed as up regulation of UCA1 gene expression at cytotoxic IC50 measured after 48 hrs relative to control
[5] = Inhibition of RTK/PI3K/AKT/mTOR signaling in human U87 cells assessed as down regulation of ZCCHC6 gene expression at cytotoxic IC50 measured after 48 hrs relative to control
[6] = Inhibition of RTK/PI3K/AKT/mTOR signaling in human U87 cells assessed as down regulation of ZNF823 gene expression at cytotoxic IC50 measured after 48 hrs relative to control
[7] = Inhibition of RTK/PI3K/AKT/mTOR signaling in human U87 cells assessed as up regulation of CALCOCO1 gene expression at cytotoxic IC50 measured after 48 hrs relative to control
[8] = Inhibition of RTK/PI3K/AKT/mTOR signaling in human U87 cells assessed as up regulation of pyruvate kinase, muscle gene expression at cytotoxic IC50 measured after 48 hrs relative to control
[9] = Inhibition of RTK/PI3K/AKT/mTOR signaling in human U87 cells assessed as up regulation of 1,4-alpha-glucan branching enzyme 1 gene expression at cytotoxic IC50 measured after 48 hrs relative to control
[10] = Inhibition of RTK/PI3K/AKT/mTOR signaling in human U87 cells assessed as down regulation of WDR76 gene expression at cytotoxic IC50 measured after 48 hrs relative to control
[11] = Inhibition of RTK/PI3K/AKT/mTOR signaling in human U87 cells assessed as up regulation of DPYSL4 gene expression at cytotoxic IC50 measured after 48 hrs relative to control
[12] = Inhibition of RTK/PI3K/AKT/mTOR signaling in human U87 cells assessed as down regulation of GSTP1 gene expression at cytotoxic IC50 measured after 48 hrs relative to control
[13] = Inhibition of RTK/PI3K/AKT/mTOR signaling in human U87 cells assessed as up regulation of ADAM metallopeptidase domain 10 gene expression at cytotoxic IC50 measured after 48 hrs relative to control
[14] = Inhibition of RTK/PI3K/AKT/mTOR signaling in human U87 cells assessed as down regulation of SLC35D1 gene expression at cytotoxic IC50 measured after 48 hrs relative to control
[15] = Inhibition of RTK/PI3K/AKT/mTOR signaling in human U87 cells assessed as up regulation of leukotriene A4 hydrolase gene expression at cytotoxic IC50 measured after 48 hrs relative to control
[16] = Inhibition of RTK/PI3K/AKT/mTOR signaling in human U87 cells assessed as down regulation of DR1 gene expression at cytotoxic IC50 measured after 48 hrs relative to control
[17] = Inhibition of RTK/PI3K/AKT/mTOR signaling in human U87 cells assessed as down regulation of BUB1 gene expression at cytotoxic IC50 measured after 48 hrs relative to control
[18] = Inhibition of RTK/PI3K/AKT/mTOR signaling in human U87 cells assessed as up regulation of B4GALNT4 gene expression at cytotoxic IC50 measured after 48 hrs relative to control
[19] = Inhibition of RTK/PI3K/AKT/mTOR signaling in human U87 cells assessed as up regulation of transcription factor AP-4 gene expression at cytotoxic IC50 measured after 48 hrs relative to control
[20] = Inhibition of RTK/PI3K/AKT/mTOR signaling in human U87 cells assessed as up regulation of G protein-coupled receptor class C group 5 member C gene expression at cytotoxic IC50 measured after 48 hrs relative to control
[21] = Inhibition of RTK/PI3K/AKT/mTOR signaling in human U87 cells assessed as up regulation of midasin AAA ATPase 1 gene expression at cytotoxic IC50 measured after 48 hrs relative to control
[22] = Inhibition of RTK/PI3K/AKT/mTOR signaling in human U87 cells assessed as down regulation of SLC44A2 gene expression at cytotoxic IC50 measured after 48 hrs relative to control
[23] = Inhibition of RTK/PI3K/AKT/mTOR signaling in human U87 cells assessed as up regulation of RGL2 gene expression at cytotoxic IC50 measured after 48 hrs relative to control
[24] = Inhibition of RTK/PI3K/AKT/mTOR signaling in human U87 cells assessed as up regulation of SRY-box 4 gene expression at cytotoxic IC50 measured after 48 hrs relative to control
[25] = Inhibition of RTK/PI3K/AKT/mTOR signaling in human U87 cells assessed as up regulation of ATP binding cassette subfamily C member 4 gene expression at cytotoxic IC50 measured after 48 hrs relative to control
[26] = Inhibition of RTK/PI3K/AKT/mTOR signaling in human U87 cells assessed as down regulation of LRWD1 gene expression at cytotoxic IC50 measured after 48 hrs relative to control
[27] = Inhibition of RTK/PI3K/AKT/mTOR signaling in human U87 cells assessed as up regulation of MALT1 gene expression at cytotoxic IC50 measured after 48 hrs relative to control
[28] = Inhibition of RTK/PI3K/AKT/mTOR signaling in human U87 cells assessed as down regulation of DAAM1 gene expression at cytotoxic IC50 measured after 48 hrs relative to control
[29] = Inhibition of RTK/PI3K/AKT/mTOR signaling in human U87 cells assessed as up regulation of IER5L gene expression at cytotoxic IC50 measured after 48 hrs relative to control
[30] = Inhibition of RTK/PI3K/AKT/mTOR signaling in human U87 cells assessed as down regulation of TNPO3 gene expression at cytotoxic IC50 measured after 48 hrs relative to control
[31] = Inhibition of RTK/PI3K/AKT/mTOR signaling in human U87 cells assessed as down regulation of DNAJA1 gene expression at cytotoxic IC50 measured after 48 hrs relative to control
[32] = Inhibition of RTK/PI3K/AKT/mTOR signaling in human U87 cells assessed as down regulation of CRK gene expression at cytotoxic IC50 measured after 48 hrs relative to control

CC(=O)C(=NNc1ccccc1C#N)C(C)=O
log2FC [1]: -0.791 | log2FC [2]: -0.453 | log2FC [3]: 2.41 | log2FC [4]: 2.79 | log2FC [5]: -1.26 | log2FC [6]: -1.59 | log2FC [7]: 0.565 | log2FC [8]: 0.908 | log2FC [9]: 1.16 | log2FC [10]: -1.08 | log2FC [11]: 1.7 | log2FC [12]: -0.612 | log2FC [13]: 0.727 | log2FC [14]: -1.21 | log2FC [15]: 0.746 | log2FC [16]: -0.569 | log2FC [17]: -0.596 | log2FC [18]: 1.85 | log2FC [19]: 0.978 | log2FC [20]: 1.25 | log2FC [21]: 0.771 | log2FC [22]: -1 | log2FC [23]: 0.632 | log2FC [24]: 0.948 | log2FC [25]: 0.805 | log2FC [26]: -0.821 | log2FC [27]: 1.91 | log2FC [28]: -0.918 | log2FC [29]: 1.89 | log2FC [30]: -0.522 | log2FC [31]: -1.08 | log2FC [32]: -0.711
